Assay results: patent US20220175776A1, “COMBINATION OF CHIR99021 AND VALPROIC ACID FOR TREATING HEARING LOSS” (Frequency Therapeutics, Inc., priority 2019, published 2022)
For at least one compound, name, drawing or mass did not settle the structure.

Tested on: Lgr5+ cochlear cells
Experiment: Lgr5+ Assay (in vitro Lgr5+ cell proliferation assay)
Format: cell-based

| SMILES | Lgr5+ Assay (Table 8, concentration range) | Lgr5+ Assay (Table 9, concentration range) |
| --- | --- | --- |
| CC(C)N(CCCNC(=O)Nc1ccc(C(C)(C)C)cc1)C[C@H]1O[C@@H](n2ccc3c(N)ncnc32)[C@H](O)[C@@H]1O [EPZ004777] | 0.6 to 45 µM |  |
| O=C(O)CCN(O)C(=O)CCCCCCCCC1CC1 [TC-E 5002] |  | 0.12 to 10 µM |
